Source: US20250122280A1, “ANTI-Ly6E ANTIBODIES, IMMUNOCONJUGATES, AND USES THEREOF” (Genentech, Inc., priority 2022, published 2025)
No constants are given. Whether binding was seen depends on the method and setting. Some entries that bind do so weakly or less than the wild type.

Columns and labels:
[1] = target: T1, Ly6E on cell lines known to express Ly6E (Kuramochi, NCI-H1781, HCC1569x2) (human) (UniProt Q16553); assay: flow cytometry on NCI-H1781 cells
T1 sequence: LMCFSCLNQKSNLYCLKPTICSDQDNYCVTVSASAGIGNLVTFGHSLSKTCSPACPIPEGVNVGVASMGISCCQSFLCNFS

[2] = target: T1, Ly6E on cell lines known to express Ly6E (Kuramochi, NCI-H1781, HCC1569x2) (human); assay: flow cytometry on HCC1569x2 cells
[3] = target: T1, Ly6E on cell lines known to express Ly6E (Kuramochi, NCI-H1781, HCC1569x2) (human); assay: flow cytometry on two Ly6E-expressing cell lines
[4] = target: T1, Ly6E on cell lines known to express Ly6E (Kuramochi, NCI-H1781, HCC1569x2) (human); assay: flow cytometry on cell lines known to express Ly6E

binding [1]: binds | binding [2]: binds | binding [3]: binds | binding [4]: binds
B1: humanized anti-Ly6E (comprising SEQ ID NOs. 3 and 5) (antibody, human IgG1, kappa, V domains shown)
VH: EVQLVESGGGLVQPGGSLKLSCAASGFTFSTVAMHWVRQASGKGLEWVGRIRTKPVNYETYYADSVKGRFTISRDDSKSTVYLQMNSLKTEDTAVYYCSAPNYYDGTYSFAYWGQGTLVTVSS
VL: DIQMTQSPSSLSASVGDRVTITCKASQNVGSNVDWYQQKPGKAPKLLIYKASNRYTGVPSRFSGSGSGTDFTFTISSLQPEDIATYYCMQSETKYTFGQGTKVEIKR
notes: also called the humanized version; 3A3.v2.D92E
